Test results reported in the supplement of paper PMC10849652.
The list shows a part of the results. Residues, ends and D or L forms follow the SMILES beside them. *: point of attachment. Cbz = O=C(OCc1ccccc1)*

Protein sequences, listed by entry. Tags and fused reporters are not part of them. Lines headed by an entry give the natural chain unless they say otherwise; changes in a name come on top.
UniProt Q6DD87: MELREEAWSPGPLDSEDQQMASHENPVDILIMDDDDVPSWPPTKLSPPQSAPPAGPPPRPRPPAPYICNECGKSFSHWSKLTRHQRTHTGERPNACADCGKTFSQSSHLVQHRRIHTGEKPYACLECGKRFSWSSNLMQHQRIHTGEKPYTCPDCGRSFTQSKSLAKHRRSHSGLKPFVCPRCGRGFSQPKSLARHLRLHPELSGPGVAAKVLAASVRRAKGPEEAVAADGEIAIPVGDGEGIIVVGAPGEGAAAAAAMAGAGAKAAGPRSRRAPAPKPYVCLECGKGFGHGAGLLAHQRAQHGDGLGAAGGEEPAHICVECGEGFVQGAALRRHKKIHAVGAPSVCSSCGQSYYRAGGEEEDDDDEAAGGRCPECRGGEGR
UniProt Q96NB3: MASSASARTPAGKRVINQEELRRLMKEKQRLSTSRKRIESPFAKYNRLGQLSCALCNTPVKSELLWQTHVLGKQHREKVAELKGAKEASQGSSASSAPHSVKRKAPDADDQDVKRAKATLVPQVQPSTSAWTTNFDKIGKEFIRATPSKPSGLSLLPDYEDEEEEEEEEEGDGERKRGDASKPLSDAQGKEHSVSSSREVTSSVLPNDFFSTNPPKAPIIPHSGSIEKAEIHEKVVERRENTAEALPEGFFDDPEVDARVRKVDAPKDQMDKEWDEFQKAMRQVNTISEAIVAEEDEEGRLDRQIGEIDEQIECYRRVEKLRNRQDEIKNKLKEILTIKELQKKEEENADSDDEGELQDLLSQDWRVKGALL
UniProt O43257, whole entry, looked up: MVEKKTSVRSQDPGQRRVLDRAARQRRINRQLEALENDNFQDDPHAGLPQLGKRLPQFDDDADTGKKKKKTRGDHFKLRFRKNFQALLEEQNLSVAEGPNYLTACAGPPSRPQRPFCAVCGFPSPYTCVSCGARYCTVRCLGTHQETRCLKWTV
UniProt Q15649: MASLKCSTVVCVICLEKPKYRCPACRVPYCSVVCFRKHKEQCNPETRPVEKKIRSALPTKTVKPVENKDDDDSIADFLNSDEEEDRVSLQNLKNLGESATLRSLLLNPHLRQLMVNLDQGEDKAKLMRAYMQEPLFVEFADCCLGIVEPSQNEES
UniProt Q9NWK9: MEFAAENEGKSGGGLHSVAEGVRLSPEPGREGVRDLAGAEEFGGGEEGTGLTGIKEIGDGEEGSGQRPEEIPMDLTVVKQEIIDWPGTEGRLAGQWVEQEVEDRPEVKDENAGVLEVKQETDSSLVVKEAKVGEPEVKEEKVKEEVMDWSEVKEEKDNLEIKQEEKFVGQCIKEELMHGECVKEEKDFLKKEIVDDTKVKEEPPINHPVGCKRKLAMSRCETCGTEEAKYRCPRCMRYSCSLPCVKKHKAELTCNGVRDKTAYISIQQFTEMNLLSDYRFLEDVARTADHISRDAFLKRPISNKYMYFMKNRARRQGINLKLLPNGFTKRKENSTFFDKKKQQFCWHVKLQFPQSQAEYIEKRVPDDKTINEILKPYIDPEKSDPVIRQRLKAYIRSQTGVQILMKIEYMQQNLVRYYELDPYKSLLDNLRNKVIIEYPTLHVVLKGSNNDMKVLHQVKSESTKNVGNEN
UniProt Q9P1U0, whole entry, looked up: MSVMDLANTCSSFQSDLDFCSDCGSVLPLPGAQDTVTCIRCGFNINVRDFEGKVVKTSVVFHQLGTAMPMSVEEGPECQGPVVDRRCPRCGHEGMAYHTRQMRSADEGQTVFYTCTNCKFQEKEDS
UniProt O60232: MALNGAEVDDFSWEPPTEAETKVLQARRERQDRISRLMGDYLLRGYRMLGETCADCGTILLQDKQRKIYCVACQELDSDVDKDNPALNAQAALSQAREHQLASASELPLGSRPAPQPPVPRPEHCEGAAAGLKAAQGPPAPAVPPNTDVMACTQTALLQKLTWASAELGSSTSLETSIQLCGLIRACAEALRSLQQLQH
UniProt Q8ND25: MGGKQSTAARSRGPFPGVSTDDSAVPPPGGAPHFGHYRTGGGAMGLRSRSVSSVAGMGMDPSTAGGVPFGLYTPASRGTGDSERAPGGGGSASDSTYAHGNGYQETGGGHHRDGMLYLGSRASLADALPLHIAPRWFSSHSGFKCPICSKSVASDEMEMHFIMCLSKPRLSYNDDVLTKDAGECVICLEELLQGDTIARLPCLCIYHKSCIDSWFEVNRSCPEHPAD
UniProt Q8NHG8: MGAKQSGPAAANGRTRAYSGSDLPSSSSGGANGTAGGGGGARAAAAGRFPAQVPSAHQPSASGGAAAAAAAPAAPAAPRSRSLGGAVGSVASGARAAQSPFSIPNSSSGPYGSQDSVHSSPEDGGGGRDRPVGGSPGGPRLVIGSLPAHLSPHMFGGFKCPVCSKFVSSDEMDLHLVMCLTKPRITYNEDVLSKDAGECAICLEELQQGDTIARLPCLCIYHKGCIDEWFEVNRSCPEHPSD
UniProt O75312: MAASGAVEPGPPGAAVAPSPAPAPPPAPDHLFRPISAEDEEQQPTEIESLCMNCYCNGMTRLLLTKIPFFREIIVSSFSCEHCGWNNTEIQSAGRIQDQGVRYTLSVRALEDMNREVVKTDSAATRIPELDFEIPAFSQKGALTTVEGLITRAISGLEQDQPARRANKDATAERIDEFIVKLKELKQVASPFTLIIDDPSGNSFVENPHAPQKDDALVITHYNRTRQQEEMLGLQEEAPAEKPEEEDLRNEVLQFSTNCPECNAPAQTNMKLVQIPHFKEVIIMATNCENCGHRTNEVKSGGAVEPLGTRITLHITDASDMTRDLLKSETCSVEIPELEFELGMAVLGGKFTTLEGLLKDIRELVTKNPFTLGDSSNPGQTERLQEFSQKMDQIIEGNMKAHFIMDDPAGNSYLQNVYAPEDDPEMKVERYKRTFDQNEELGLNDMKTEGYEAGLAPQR
UniProt O43264: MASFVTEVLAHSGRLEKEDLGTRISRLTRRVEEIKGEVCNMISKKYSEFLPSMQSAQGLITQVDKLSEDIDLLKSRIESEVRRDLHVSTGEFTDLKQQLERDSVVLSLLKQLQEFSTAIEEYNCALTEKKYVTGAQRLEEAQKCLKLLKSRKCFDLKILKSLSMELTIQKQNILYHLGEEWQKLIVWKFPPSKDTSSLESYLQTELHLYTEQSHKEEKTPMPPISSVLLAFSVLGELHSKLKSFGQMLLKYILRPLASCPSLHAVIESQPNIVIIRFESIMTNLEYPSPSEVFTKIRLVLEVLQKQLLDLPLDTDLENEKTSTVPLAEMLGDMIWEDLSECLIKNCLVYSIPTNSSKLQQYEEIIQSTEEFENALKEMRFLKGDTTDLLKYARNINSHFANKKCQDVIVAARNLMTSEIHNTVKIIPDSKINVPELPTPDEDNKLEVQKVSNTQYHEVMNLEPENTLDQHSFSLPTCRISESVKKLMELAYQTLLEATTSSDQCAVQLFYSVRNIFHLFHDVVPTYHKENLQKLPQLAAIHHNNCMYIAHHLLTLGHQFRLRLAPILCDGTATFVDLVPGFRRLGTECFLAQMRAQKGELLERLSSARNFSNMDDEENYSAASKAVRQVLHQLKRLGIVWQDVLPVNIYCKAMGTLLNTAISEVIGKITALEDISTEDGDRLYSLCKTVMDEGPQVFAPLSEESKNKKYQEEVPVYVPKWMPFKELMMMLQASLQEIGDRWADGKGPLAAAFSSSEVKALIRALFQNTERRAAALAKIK
UniProt Q9P2E3: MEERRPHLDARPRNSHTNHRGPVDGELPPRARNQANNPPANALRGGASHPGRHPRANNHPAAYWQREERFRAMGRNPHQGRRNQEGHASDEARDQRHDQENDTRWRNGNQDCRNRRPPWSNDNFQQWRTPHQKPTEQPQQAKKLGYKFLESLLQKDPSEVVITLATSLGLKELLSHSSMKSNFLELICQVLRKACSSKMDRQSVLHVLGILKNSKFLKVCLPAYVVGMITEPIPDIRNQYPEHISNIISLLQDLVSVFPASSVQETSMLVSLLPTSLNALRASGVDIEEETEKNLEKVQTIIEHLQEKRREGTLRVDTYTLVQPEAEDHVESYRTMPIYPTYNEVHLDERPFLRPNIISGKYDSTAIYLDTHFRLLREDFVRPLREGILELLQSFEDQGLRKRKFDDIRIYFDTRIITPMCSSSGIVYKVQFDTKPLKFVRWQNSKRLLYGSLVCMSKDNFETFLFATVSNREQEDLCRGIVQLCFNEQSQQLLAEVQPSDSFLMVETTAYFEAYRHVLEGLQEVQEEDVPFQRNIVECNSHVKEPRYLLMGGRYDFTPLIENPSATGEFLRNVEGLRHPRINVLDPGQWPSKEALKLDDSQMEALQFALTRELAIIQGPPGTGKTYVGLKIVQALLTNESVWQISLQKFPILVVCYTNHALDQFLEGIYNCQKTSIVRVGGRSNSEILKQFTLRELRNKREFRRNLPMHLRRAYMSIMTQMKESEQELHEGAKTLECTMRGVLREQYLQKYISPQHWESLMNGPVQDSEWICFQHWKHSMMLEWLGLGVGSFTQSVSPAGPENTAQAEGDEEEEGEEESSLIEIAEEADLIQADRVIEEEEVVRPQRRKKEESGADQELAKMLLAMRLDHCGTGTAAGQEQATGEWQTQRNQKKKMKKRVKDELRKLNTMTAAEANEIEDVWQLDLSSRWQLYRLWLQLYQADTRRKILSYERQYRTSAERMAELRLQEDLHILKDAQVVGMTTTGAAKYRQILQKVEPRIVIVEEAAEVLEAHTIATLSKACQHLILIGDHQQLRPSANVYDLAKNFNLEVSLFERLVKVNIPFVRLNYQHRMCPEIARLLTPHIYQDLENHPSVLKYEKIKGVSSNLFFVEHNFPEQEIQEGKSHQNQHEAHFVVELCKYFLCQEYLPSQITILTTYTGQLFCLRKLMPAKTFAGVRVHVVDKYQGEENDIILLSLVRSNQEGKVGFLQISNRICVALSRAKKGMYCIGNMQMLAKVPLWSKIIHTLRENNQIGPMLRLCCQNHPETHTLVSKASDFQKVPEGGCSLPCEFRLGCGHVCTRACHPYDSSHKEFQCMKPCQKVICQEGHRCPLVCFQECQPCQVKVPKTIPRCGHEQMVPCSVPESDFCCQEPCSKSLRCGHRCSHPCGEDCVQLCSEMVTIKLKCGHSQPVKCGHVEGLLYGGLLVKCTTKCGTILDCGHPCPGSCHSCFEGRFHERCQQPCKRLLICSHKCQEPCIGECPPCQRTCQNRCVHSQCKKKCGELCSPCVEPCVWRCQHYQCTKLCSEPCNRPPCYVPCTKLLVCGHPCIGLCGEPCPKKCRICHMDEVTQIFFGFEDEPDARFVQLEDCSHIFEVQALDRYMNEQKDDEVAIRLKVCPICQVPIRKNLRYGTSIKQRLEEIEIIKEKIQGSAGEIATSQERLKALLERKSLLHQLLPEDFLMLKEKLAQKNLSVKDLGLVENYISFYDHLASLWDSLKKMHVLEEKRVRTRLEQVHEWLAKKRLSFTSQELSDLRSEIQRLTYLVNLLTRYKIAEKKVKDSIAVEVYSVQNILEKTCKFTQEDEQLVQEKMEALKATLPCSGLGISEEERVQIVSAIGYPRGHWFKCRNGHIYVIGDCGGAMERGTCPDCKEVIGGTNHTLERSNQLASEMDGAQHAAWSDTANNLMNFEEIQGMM
UniProt Q9UHR6: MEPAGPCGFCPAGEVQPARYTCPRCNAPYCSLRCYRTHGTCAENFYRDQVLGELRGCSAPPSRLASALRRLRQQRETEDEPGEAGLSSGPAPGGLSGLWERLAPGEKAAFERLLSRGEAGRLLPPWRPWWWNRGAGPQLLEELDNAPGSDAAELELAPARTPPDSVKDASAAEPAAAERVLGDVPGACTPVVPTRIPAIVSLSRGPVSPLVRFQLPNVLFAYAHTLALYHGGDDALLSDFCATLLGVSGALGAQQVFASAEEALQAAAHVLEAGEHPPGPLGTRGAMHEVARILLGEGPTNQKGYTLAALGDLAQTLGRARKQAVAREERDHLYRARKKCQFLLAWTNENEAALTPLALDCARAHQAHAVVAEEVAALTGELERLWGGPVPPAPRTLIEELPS
UniProt Q19AV6: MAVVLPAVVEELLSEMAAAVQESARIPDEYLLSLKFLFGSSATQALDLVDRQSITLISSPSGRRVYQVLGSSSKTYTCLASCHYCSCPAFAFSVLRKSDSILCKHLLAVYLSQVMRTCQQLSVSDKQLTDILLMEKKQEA
UniProt Q16670: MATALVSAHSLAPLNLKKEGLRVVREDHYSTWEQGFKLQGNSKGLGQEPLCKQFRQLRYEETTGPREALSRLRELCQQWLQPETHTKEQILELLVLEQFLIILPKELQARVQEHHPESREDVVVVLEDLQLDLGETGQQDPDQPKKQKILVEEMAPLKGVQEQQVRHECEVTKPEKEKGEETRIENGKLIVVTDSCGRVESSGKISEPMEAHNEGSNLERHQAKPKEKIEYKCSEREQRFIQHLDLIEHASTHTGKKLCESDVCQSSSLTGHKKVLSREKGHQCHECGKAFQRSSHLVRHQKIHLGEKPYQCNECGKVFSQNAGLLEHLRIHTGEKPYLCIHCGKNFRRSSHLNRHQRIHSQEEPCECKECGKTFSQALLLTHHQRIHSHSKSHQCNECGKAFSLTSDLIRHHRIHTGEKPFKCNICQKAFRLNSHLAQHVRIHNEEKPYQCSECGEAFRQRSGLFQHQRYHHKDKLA

Tests used:
Test in all cases: log2 fold change, soluble protein after heating vs DMSO (PISA); higher = thermal stabilisation; K562 cells, 10 uM, 30 min; active = over 0.2 and 3.5 SD of the protein, either way, in both replicates (recomputed)
ZNF787 = ZNF787 (UniProt Q6DD87)
Procedure, shortened: (§1)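 K562 cells at 2×10^6 cells/mL were given 10 μM compound for 30 min. Aliquots then went through 3 min of heating across 48°C-58°C, were pooled, and were extracted in PBS with 0.5% NP-40 at 4°C, and the supernatant after 21,000xg for 90 min was quantified by TMTpro 16plex LC-MS/MS with channel sums equalised. Thermal stability relative to control samples, from duplicates, is given as log2 fold change.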

ZNF830 = ZNF830 (UniProt Q96NB3)
Procedure, shortened: as §1

ZNHIT1 = ZNHIT1 (UniProt O43257)
Procedure, shortened: as §1

ZNHIT3 = ZNHIT3 (UniProt Q15649)
Procedure, shortened: as §1

ZNHIT6 = ZNHIT6 (UniProt Q9NWK9)
Procedure, shortened: as §1

ZNRD1 = ZNRD1 (UniProt Q9P1U0)
Procedure, shortened: as §1

ZNRD2 [1] = target: ZNRD2 (UniProt G3V1B8)
Procedure, shortened: as §1

ZNRD2 [2] = target: ZNRD2 (UniProt O60232)
Procedure, shortened: as §1

ZNRF1 isoform 2 = ZNRF1 isoform 2 (UniProt Q8ND25)
Procedure, shortened: as §1

ZNRF2 = ZNRF2 (UniProt Q8NHG8)
Procedure, shortened: as §1

ZPR1 = ZPR1 (UniProt O75312)
Procedure, shortened: as §1

ZRANB2 = ZRANB2 (UniProt O95218)
Procedure, shortened: as §1

ZW10 = ZW10 (UniProt O43264)
Procedure, shortened: as §1

ZNFX1 = ZNFX1 (UniProt Q9P2E3)
Procedure, shortened: as §1

ZNHIT2 = ZNHIT2 (UniProt Q9UHR6)
Procedure, shortened: as §1

ZSWIM7 = ZSWIM7 (UniProt Q19AV6)
Procedure, shortened: as §1

ZNF852 = ZNF852 (UniProt Q6ZMS4)
Procedure, shortened: as §1

ZSCAN26 = ZSCAN26 (UniProt Q16670)
Procedure, shortened: as §1

SMILES | log2 fold change (ZNF787) | log2 fold change (ZNF830) | log2 fold change (ZNHIT1) | log2 fold change (ZNHIT3) | log2 fold change (ZNHIT6) | log2 fold change (ZNRD1) | log2 fold change (ZNRD2 [1]) | log2 fold change (ZNRD2 [2]) | log2 fold change (ZNRF1 isoform 2) | log2 fold change (ZNRF2) | log2 fold change (ZPR1) | log2 fold change (ZRANB2) | log2 fold change (ZW10) | log2 fold change (ZNFX1) | log2 fold change (ZNHIT2) | log2 fold change (ZSWIM7) | log2 fold change (ZNF852) | log2 fold change (ZSCAN26)
CC(=O)c1cnc2ccc(-c3cc(Cl)c(O)c(Cl)c3)nc2c1N[C@H]1CC[C@H](CN(C)C)CC1 | inactive: 0.116 | inactive: -0.029 | inactive: -0.04 | inactive: 0.069 | inactive: -0.017 | inactive: 0.076 | inactive: 0.002 | inactive: -0.083 | inactive: -0.28 | inactive: 0 | inactive: 0.005 | inactive: 0.017 | inactive: 0.011 |  |  |  |  | 
COc1cc(C(=O)O)ccc1NC(=O)[C@@H]1N[C@@H](CC(C)(C)C)[C@](C#N)(c2ccc(Cl)cc2F)[C@H]1c1cccc(Cl)c1F [idasanutlin] | inactive: 0.164 | inactive: -0.019 | inactive: 0.007 | inactive: -0.01 | inactive: 0.08 | inactive: 0.076 | inactive: -0.013 | inactive: -0.005 | inactive: 0.028 | inactive: -0.05 | inactive: -0.016 | inactive: 0.024 | inactive: -0.035 |  |  |  |  | 
CN(C)CC(=O)Nc1ccc2[nH]c(=O)c3ccccc3c2c1 | inactive: -0.075 | inactive: -0.067 |  | inactive: -0.089 | inactive: 0.117 | inactive: 0.033 |  | inactive: 0.015 | inactive: -0.021 | inactive: -0.029 | inactive: 0.008 | inactive: -0.048 | inactive: 0.013 | inactive: -0.044 | inactive: 0.155 | inactive: 0.12 |  | 
O=C1NC(=NCc2cccs2)S/C1=C\c1ccc2ncccc2c1 | inactive: -0.174 | inactive: -0.031 | inactive: 0.185 | inactive: 0.002 | inactive: 0.144 | inactive: -0.179 | inactive: 0.152 | inactive: 0.125 | inactive: 0.145 | inactive: 0.004 | inactive: -0.012 | inactive: -0.059 | inactive: -0.021 |  |  |  |  | 
CCN(CC)Cc1ccc2cc(COC(=O)Nc3ccc(C(=O)NO)cc3)ccc2c1 [givinostat] | inactive: 0.047 | inactive: -0.031 | inactive: 0.127 | inactive: -0.031 | inactive: 0.071 | inactive: 0.013 | inactive: 0.079 | inactive: -0.068 | inactive: -0.071 | inactive: 0.049 | inactive: 0.009 | inactive: -0.029 | inactive: 0.096 |  |  | inactive: -0.061 | inactive: 0.02 | 
CS(=O)(=O)CCNCc1ccc(-c2ccc3ncnc(Nc4ccc(OCc5cccc(F)c5)c(Cl)c4)c3c2)o1 [lapatinib] | inactive: 0.024 | inactive: 0.087 |  | inactive: -0.047 | inactive: -0.04 | inactive: -0.014 |  | inactive: -0.024 | inactive: 0.138 | inactive: 0.023 | inactive: -0.012 | inactive: 0.018 | inactive: -0.01 |  | inactive: 0.085 |  | inactive: 0.009 | inactive: 0.138
O=C1NC(=O)/C(=C\c2ccc3nccnc3c2)S1 | inactive: 0 | inactive: 0.028 | inactive: -0.109 | inactive: 0.074 | inactive: 0.026 | inactive: -0.105 | inactive: -0.002 | inactive: 0.086 | inactive: -0.081 | inactive: -0.058 | inactive: 0.017 | inactive: 0.051 | inactive: -0.009 |  |  | inactive: -0.026 |  | 
CCN(CCCOc1ccc2c(Nc3cc(CC(=O)Nc4cccc(F)c4)[nH]n3)ncnc2c1)CCOP(=O)(O)O [barasertib] | inactive: -0.083 | inactive: -0.003 | inactive: -0.064 | inactive: 0.019 | inactive: 0.075 | inactive: -0.358 | inactive: 0.107 | inactive: 0.027 | inactive: 0.024 | inactive: 0.015 | inactive: 0.036 | inactive: -0.01 | inactive: 0.055 |  |  | inactive: -0.159 |  | 
C=CC(=O)N1CCC[C@@H](n2nc(-c3ccc(Oc4ccccc4)cc3)c3c(N)ncnc32)C1 [ibrutinib] | inactive: 0.07 | inactive: 0.021 | inactive: -0.001 | inactive: -0.022 | inactive: -0.14 | inactive: -0.098 | inactive: -0.019 | inactive: -0.02 | inactive: -0.245 | inactive: 0.047 | inactive: -0.042 | inactive: 0.013 | inactive: -0.007 |  |  | inactive: 0.047 |  | 
Oc1cc(-c2nc(-c3ccccc3)[nH]c2-c2ccncc2)ccc1Cl | inactive: 0.022 | inactive: -0.019 |  | inactive: -0.252 |  | inactive: -0.222 | inactive: 0.068 | inactive: 0.139 | inactive: -0.151 | inactive: -0.018 | inactive: 0 | inactive: -0.073 | inactive: -0.034 |  | inactive: -0.049 |  | inactive: -0.134 | 
Cn1cc(-c2ccc3nnc(C(F)(F)c4ccc5ncccc5c4)n3n2)cn1 | inactive: -0.023 | inactive: -0.002 |  | inactive: 0.064 |  | inactive: -0.014 | inactive: 0.259 | inactive: 0.136 | inactive: -0.166 | inactive: -0.007 | inactive: 0.036 | inactive: 0.036 | inactive: -0.069 |  | inactive: -0.017 |  | inactive: 0.017 | 
Cc1ccc(NC(=O)c2cccc(N(C)C)c2)cc1NC(=O)c1ccc(O)cc1 | inactive: -0.003 | inactive: 0.011 |  | inactive: 0.008 |  | inactive: 0.033 | inactive: -0.175 | inactive: -0.093 | inactive: -0.071 | inactive: 0.024 | inactive: -0.002 | inactive: -0.012 | inactive: -0.043 |  | inactive: 0.054 |  | inactive: 0.139 | 
NCC(=O)Nc1ccc(-n2nc(C(F)(F)F)cc2-c2ccc3c(ccc4ccccc43)c2)cc1 | inactive: 0.062 | inactive: 0.063 |  | inactive: 0.066 | inactive: 0.134 | inactive: 0.043 |  | inactive: -0.008 | inactive: 0.054 | inactive: 0.091 | inactive: -0.024 | inactive: 0.067 | inactive: -0.007 | inactive: -0.162 | inactive: -0.18 | inactive: -0.021 |  | 
Cc1ccc(C(=O)N(CCCN)[C@@H](c2nc3cc(Cl)ccc3c(=O)n2Cc2ccccc2)C(C)C)cc1 [ispinesib] | inactive: -0.058 | inactive: 0.018 |  | inactive: -0.325 |  | inactive: 0.065 | inactive: 0.172 | inactive: 0.216 | inactive: -0.008 | inactive: 0.017 | inactive: 0.075 | inactive: 0.005 | inactive: -0.179 |  | inactive: -0.182 |  | inactive: -0.158 | 
COC(=O)[C@H](CCSC)NC(=O)c1ccc(NC[C@@H](N)CS)cc1-c1ccccc1 | inactive: 0.066 | inactive: 0.04 |  | inactive: 0.099 | inactive: 0.077 | inactive: -0.157 |  | inactive: 0.05 | inactive: 0.069 | inactive: -0.003 | inactive: 0.009 | inactive: 0.05 | inactive: -0.079 | inactive: 0.01 | inactive: -0.155 | inactive: -0.081 |  | 
Cn1cncc1[C@@](N)(c1ccc(Cl)cc1)c1ccc2c(c1)c(-c1cccc(Cl)c1)cc(=O)n2C [tipifarnib] | inactive: 0.063 | inactive: -0.02 |  | inactive: 0.072 | inactive: -0.105 | inactive: 0.005 |  | inactive: 0.002 | inactive: 0.038 | inactive: -0.025 | inactive: -0.005 | inactive: -0.001 | inactive: -0.087 |  | inactive: 0.016 |  | inactive: 0.033 | inactive: 0.043
CC[C@@H]1C(=O)N(C)c2cnc(Nc3ccc(C(=O)N[C@H]4CC[C@H](N5CCN(CC6CC6)CC5)CC4)cc3OC)nc2N1C(C)C [volasertib] | inactive: 0.124 | inactive: 0.016 |  | inactive: -0.023 | inactive: 0.051 | inactive: 0.146 |  | inactive: 0.04 | inactive: 0.063 | inactive: 0.011 | inactive: -0.069 | inactive: 0.1 | active: -0.399 |  | inactive: -0.24 |  | inactive: 0.087 | inactive: 0.304
CCCS(=O)(=O)Nc1ccc(F)c(C(=O)c2c[nH]c3ncc(-c4ccc(Cl)cc4)cc23)c1F [vemurafenib] | inactive: -0.056 | inactive: 0.022 |  | inactive: -0.022 | inactive: 0.276 | inactive: -0.196 |  | inactive: 0.042 | inactive: -0.087 | inactive: 0.018 | inactive: 0.026 | inactive: -0.014 | inactive: 0.025 | inactive: -0.145 | inactive: 0.03 | inactive: -0.205 |  | 
Cc1ccc(Sc2cncc3sc(C(N)=O)cc23)cc1 | inactive: -0.035 | inactive: 0.017 |  | inactive: -0.035 | inactive: -0.07 | inactive: 0.175 |  | inactive: 0.027 | inactive: 0.036 | inactive: 0.067 | inactive: 0.018 | inactive: -0.04 | inactive: 0.018 |  | inactive: -0.028 |  | inactive: -0.193 | inactive: -0.092
CC(C)C[C@@H](C=O)NC(=O)[C@H](CC(C)C)NC(=O)[C@H](CC(C)C)NC(=O)OCc1ccccc1 (Cbz-Leu-Leu-Leu-aldehyde) | inactive: 0.116 | inactive: -0.015 |  | inactive: 0.215 |  | inactive: 0.062 | inactive: 0 | inactive: -0.033 | inactive: 0.114 | inactive: 0.038 | inactive: -0.006 | inactive: -0.027 | inactive: 0.007 |  | inactive: 0.192 |  | inactive: 0.239 | 
CNC(=O)c1ccc(Nc2ncc(C(F)(F)F)c(NCc3nccnc3N(C)S(C)(=O)=O)n2)cc1 [defactinib] | inactive: 0.193 | inactive: -0.009 |  | inactive: -0.006 | inactive: -0.348 | inactive: 0.075 |  | inactive: -0.051 | inactive: 0.09 | inactive: 0.079 | inactive: -0.028 | inactive: -0.046 | inactive: -0.083 | inactive: 0.334 | inactive: 0.133 | inactive: 0.111 |  | 
COc1cc2nc(-c3cc(F)ccc3O)nc(N[C@@H]3CNC[C@H]3C(C)(C)O)c2cc1OC | inactive: 0.007 | inactive: -0.08 |  | inactive: 0.007 | inactive: 0.03 | inactive: 0.192 |  | inactive: -0.062 | inactive: -0.089 | inactive: 0.094 | inactive: 0.049 | inactive: -0.006 | inactive: 0.041 |  | inactive: 0.34 |  | inactive: -0.108 | inactive: -0.315
CCn1c(C(=O)N(C2CC2)C2CC2)cc2c3c(ncn3C)c(Nc3cc(C)n(C)n3)nc21 | inactive: -0.044 | inactive: 0.018 | inactive: 0.033 | inactive: 0.025 | inactive: -0.047 | inactive: 0.018 | inactive: -0.096 | inactive: -0.004 | inactive: 0.047 | inactive: 0.042 | inactive: -0.001 |  |  |  |  | inactive: 0.131 | inactive: -0.063 | 

For reference, some entries already given.
SMILES | log2 fold change (ZNF787) | log2 fold change (ZNF830) | log2 fold change (ZNHIT1) | log2 fold change (ZNHIT3) | log2 fold change (ZNHIT6) | log2 fold change (ZNRD1) | log2 fold change (ZNRD2 [1]) | log2 fold change (ZNRD2 [2]) | log2 fold change (ZNRF1 isoform 2) | log2 fold change (ZNRF2) | log2 fold change (ZPR1) | log2 fold change (ZRANB2) | log2 fold change (ZW10) | log2 fold change (ZNFX1) | log2 fold change (ZNHIT2) | log2 fold change (ZSWIM7) | log2 fold change (ZNF852) | log2 fold change (ZSCAN26)
Cn1cncc1[C@@](N)(c1ccc(Cl)cc1)c1ccc2c(c1)c(-c1cccc(Cl)c1)cc(=O)n2C [tipifarnib] | inactive: 0.063 | inactive: -0.02 |  | inactive: 0.072 | inactive: -0.105 | inactive: 0.005 |  | inactive: 0.002 | inactive: 0.038 | inactive: -0.025 | inactive: -0.005 | inactive: -0.001 | inactive: -0.087 |  | inactive: 0.016 |  | inactive: 0.033 | inactive: 0.043
CC[C@@H]1C(=O)N(C)c2cnc(Nc3ccc(C(=O)N[C@H]4CC[C@H](N5CCN(CC6CC6)CC5)CC4)cc3OC)nc2N1C(C)C [volasertib] | inactive: 0.124 | inactive: 0.016 |  | inactive: -0.023 | inactive: 0.051 | inactive: 0.146 |  | inactive: 0.04 | inactive: 0.063 | inactive: 0.011 | inactive: -0.069 | inactive: 0.1 | active: -0.399 |  | inactive: -0.24 |  | inactive: 0.087 | inactive: 0.304
